The record followed here is PubChem BioAssay AID445 (National Center for Advancing Translational Sciences (NCATS), 2006).

Some of the results follow. Further columns of the screen follow, without active or inactive calls. Compounds called inactive in the main read-out are mostly missing here. Words in brackets tell the shape of the fitted curve; partial curves, single points and poor fits give uncertain potencies.

This assay is described as follows: IkB Signaling. The note with it: ABC-DLBCL IkBa-CBG/CBR dual luciferase ratio (green luciferase fused to IkBa over red control in OCI-Ly3 lymphoma cells), 4 h; measured here: control luc red channel unless noted. An outline of the steps: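 Luminescence ratio of IκBα-fused green versus native red beetle luciferase in OCI-Ly3 cells, 4 h post-doxycycline with compound; red signal alone, scaled from basal (0%) to zero light (-100%), flagged nonspecific or cytotoxic effects.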
As to `CCn1c(=O)sc2cc(NC(=O)c3cccc(OC)c3)ccc21`, the concentration at half-maximal activity (AC50) was 15.8 µM [falling, partial curve].

Regarding `COc1ccc(C2CC(=O)c3c(C)nc(N4CCN(C=O)CC4)nc3C2)c(OC)c1` (configuration not stated), the concentration at half-maximal activity (AC50) was 0.2 µM [rising, partial curve].

Take `Cc1sc2nc(SCC(=O)c3cc(C)n(CC4CCCO4)c3C)n(C(C)C)c(=O)c2c1C` (configuration not stated): the half-maximal activity concentration (AC50) is 25.1 µM [falling, partial curve].

`N#CCSc1nnc(COc2cccc3ccccc23)n1-c1cccc(Cl)c1`: the AC50 was 31.6 µM [falling, single point].

Turning to `CCOc1ccc(Cn2c(CNS(=O)(=O)c3c(C)cc(C)cc3C)nc3cccnc32)cc1`, the AC50 is 39.8 µM [falling, single point].

`O=C(CSCc1nc2ccccc2[nH]1)N1CCN(c2ccc(F)cc2)CC1`: the half-maximal activity concentration (AC50) is 1.26 µM [falling, full curve].

In the case of `CC(=O)c1ccc(NC(=O)c2ccc(NC(=O)CCS(=O)(=O)c3cccs3)cc2)cc1`, the AC50 is 10 µM [falling, partial curve].

In the case of `Cc1cccc(Cn2cc(S(=O)(=O)c3ccc(Cl)cc3)c(=O)c3cc4c(cc32)OCO4)c1`, the concentration at half-maximal activity (AC50) was 1 µM [falling, single point].

Turning to `Cc1cccc(OCCSc2nc3ccc(NC(=O)c4cccs4)cc3s2)c1`, the AC50 was 3.98 µM [falling, full curve].

On to `O=C(CCCc1cccs1)Nc1nc2c(s1)CCCC2`, for which the half-maximal activity concentration (AC50) is 39.8 µM [falling, single point].

As for `Cc1ccc2nc(COc3cccc(NC(=O)COc4ccccc4F)c3)cc(=O)n2c1`, the AC50 is 0.0794 µM [falling, full curve].

As for `Cc1ccc(S(=O)(=O)N2CCN(C3CC(=O)N(Cc4ccccc4)C3=O)CC2)cc1C` (configuration not stated), the AC50 was 20 µM [falling, partial curve].

With `Cc1ccc(C)c(N2C(=O)CN=C2Nc2ccccc2Cl)c1`, the AC50 is 12.6 µM [falling, partial curve].

With `Cc1ccc(-n2ncc(C(=O)N3CCN(c4ccccn4)CC3)c2C2CCN(C(=O)OC(C)(C)C)CC2)cc1`, the AC50 is 39.8 µM [falling, single point].

For `N#Cc1nc(COc2ccc(-c3ccccc3)cc2)oc1NCCCN1CCOCC1`, the AC50 is 12.6 µM [falling, partial curve].

Take `Cc1ccc(NC(=O)c2cc(S(=O)(=O)N3CCCc4ccccc43)ccc2F)cc1F`: the AC50 is 20 µM [falling, partial curve].

Regarding `Cc1nc(-c2ccc(Cl)cc2)sc1CCNC(=O)c1ccc(C(F)(F)F)cc1`, the AC50 was 0.0794 µM [falling, full curve, poor fit].

Regarding `CCC(C(=O)Nc1ccccc1C(=O)OC)n1nc(C)c2c(C)n(-c3ccc(C)cc3)nc2c1=O` (configuration not stated), the half-maximal activity concentration (AC50) is 25.1 µM [falling, partial curve].

Turning to `COc1ccccc1C(=O)OCc1cc(=O)n2nc(C3CC3)sc2n1`, the concentration at half-maximal activity (AC50) is 15.8 µM [falling, partial curve].

In the case of `COc1cccc(OCCSc2nc3ccccc3n2CC(=O)N2CCCCC2)c1`, the concentration at half-maximal activity (AC50) was 15.8 µM [falling, partial curve].

Turning to `COC(=O)c1cc(-c2c(C)nn(-c3ccccc3)c2C)n[nH]1`, the concentration at half-maximal activity (AC50) is 6.31 µM [falling, partial curve].

Regarding `COc1ccc(OC)c(NC(=O)CSCc2cnn(-c3ccccc3)c2-n2cccc2)c1`, the AC50 is 15.8 µM [falling, partial curve].

Turning to `COc1cccc(-n2cc(C(=O)NCc3ccccc3OC)c3ccccc3c2=O)c1`, the half-maximal activity concentration (AC50) is 1.58 µM [rising, full curve].

Regarding `Cn1c(=O)c2c(nc(NCc3ccccc3)n2CCCc2ccccc2)n(C)c1=O`, the half-maximal activity concentration (AC50) was 20 µM [falling, partial curve].

For the molecule `COC(=O)c1[nH]c2ccccc2c1NC(=O)CN1CCN(C/C=C/c2ccccc2)CC1`, the AC50 was 10 µM [falling, partial curve].

`O=C(Cn1cc2c(n1)CCCCC2)NCc1cccs1`: the concentration at half-maximal activity (AC50) is 12.6 µM [falling, partial curve].

`CC(=O)Nc1cc(C(=O)NCc2ccc(C)cc2)ccc1Sc1ccc(C)cc1`: the AC50 was 25.1 µM [falling, partial curve].

As for `O=C(Nc1nnc(-c2ccco2)s1)c1ccccc1`, the AC50 was 1.58 µM [falling, full curve].

For the molecule `CCc1ccc(-c2nc(CN3CCCC(C(=O)N4CCN(c5cc(Cl)ccc5C)CC4)C3)c(C)o2)cc1` (configuration not stated), the AC50 was 15.8 µM [falling, partial curve].

In the case of `COc1ccc(Cl)cc1NC(=O)CN(C)S(=O)(=O)c1ccc2c(c1)CCCN2C(C)=O`, the AC50 was 15.8 µM [falling, partial curve].

Consider `Cc1cccc(-n2c(=O)c3c(c4cc(C)ccc4n3C)n(CC(=O)NCCC3=CCCCC3)c2=O)c1`, for which the AC50 was 20 µM [falling, single point].

As for `COc1ccc(-c2noc(-c3cccnc3NCc3ccco3)n2)cc1`, the AC50 is 15.8 µM [rising, partial curve].

Consider `CCOC(=O)CSc1nc2ccccc2c(=O)n1CCc1ccc(OC)c(OC)c1`, for which the AC50 is 39.8 µM [falling, single point].

Turning to `O=C(Nc1ccc(Cl)cc1C(=O)Nc1ccc(Br)cn1)c1ccco1`, the half-maximal activity concentration (AC50) was 15.8 µM [falling, partial curve].

In the case of `Cc1ccc(Oc2c(C(F)(F)F)oc3cc(OCC(=O)NC4CCCCC4)ccc3c2=O)cc1`, the AC50 was 0.316 µM [falling, full curve, poor fit].

In the case of `CCc1cccc(C)c1NC(=O)CSc1nc(C)cc(C)c1C(=O)Nc1ccccc1`, the AC50 is 31.6 µM [falling, single point].

With `COc1ccc(NC(=O)C(c2ccc(C)cc2)N(C)C(=O)Cc2cccs2)cc1` (configuration not stated), the AC50 was 20 µM [falling, partial curve].

For `Cc1ccc2cc(CN(Cc3cccs3)Cc3nnnn3CC3CCCO3)c(=O)[nH]c2c1C` (configuration not stated), the AC50 is 20 µM [falling, partial curve].

With `COc1ccc(-c2cccc(NS(=O)(=O)c3cc(C)c(OC)c(C)c3C)c2)nn1`, the half-maximal activity concentration (AC50) is 15.8 µM [falling, partial curve].

Regarding `Cc1ccc(-n2c(C)cc(C(=O)OCC(=O)N(C)C3CCS(=O)(=O)C3)c2C)cc1` (configuration not stated), the AC50 was 12.6 µM [falling, partial curve].

In the case of `CC(C)N(Cc1ccccc1)c1ncnc2c1nnn2C`, the AC50 is 3.16 µM [rising, single point].

In the case of `COc1ccccc1-c1nnc(SCCOc2ccccc2C)o1`, the concentration at half-maximal activity (AC50) was 39.8 µM [falling, single point].

`COc1ccc2c(c1)C(=O)N(c1ccccc1OC)C(=O)C2`: the AC50 was 10 µM [falling, partial curve].

As to `CCOC(=O)c1cc(-c2ccc(OC)c(S(=O)(=O)Nc3ccc(OC)cc3OC)c2)on1`, the AC50 was 25.1 µM [rising, single point] [measured here: IkB-luc green channel].

`O=C(Nc1ccc2nc(SCCOc3ccccc3Cl)sc2c1)c1cccs1`: the half-maximal activity concentration (AC50) is 6.31 µM [falling, partial curve].

`CCOc1cc(N2CCOCC2)c(OCC)cc1NC(=O)c1cc(-c2ccco2)nc2ccccc12`: the AC50 is 0.501 µM [falling, full curve, poor fit].

Regarding `O=C(CSc1ncnc2sc3c(c12)CCCCC3)NCc1ccco1`, the half-maximal activity concentration (AC50) was 10 µM [falling, partial curve].

Consider `O=C(NCc1ccc(Cl)cc1)C1CCCN(C(=O)c2cnn(-c3ccc(F)cc3)c2-n2cccc2)C1` (configuration not stated), for which the concentration at half-maximal activity (AC50) was 15.8 µM [falling, partial curve].

For `CCCc1cc(C(=O)Nc2c(C)nn(Cc3ccc(C)cc3)c2C)no1`, the half-maximal activity concentration (AC50) is 25.1 µM [falling, partial curve].

Take `CCC(=O)N1CCc2cc(CNC(=O)C(CC)c3ccccc3)ccc21` (configuration not stated): the concentration at half-maximal activity (AC50) was 2 µM [rising, full curve, poor fit].

As to `Cc1nn(-c2ccccc2)c2sc(C(=O)OCc3nnc(-c4ccccc4)o3)cc12`, the half-maximal activity concentration (AC50) was 3.16 µM [falling, single point].

Take `Cc1ccc(CNC(=O)CCSCc2ccccc2F)cc1`: the AC50 is 39.8 µM [falling, partial curve].

Consider `Cc1ccc(N(C(=O)COc2ccccc2C)S(=O)(=O)c2ccc(Cl)cc2)cc1`, for which the AC50 is 10 µM [falling, partial curve].

As to `Cc1ccc(Nc2c(-c3cc(Br)ccc3F)nc3cc(C)ccn23)cc1`, the AC50 is 12.6 µM [falling, partial curve, poor fit].

Take `CCN(CC)S(=O)(=O)c1cc(-c2nnc(Nc3ccc(OC)c(C(N)=O)c3)c3ccccc23)ccc1C`: the AC50 was 2.51 µM [falling, partial curve].

As to `Cc1ccc(NC(=O)c2cccc(N3CCCS3(=O)=O)c2)cc1`, the half-maximal activity concentration (AC50) is 39.8 µM [falling, partial curve].

Consider `CN(C)S(=O)(=O)c1ccc(S(=O)(=O)Nc2ccc3c(c2)oc2ccccc23)cc1`, for which the half-maximal activity concentration (AC50) was 15.8 µM [falling, partial curve].

Regarding `COc1ccccc1N1CCN(c2ccc(=O)n(CC(=O)Nc3ccc(F)c(F)c3)n2)CC1`, the AC50 is 12.6 µM [falling, partial curve].

Turning to `Cc1c(NC(=O)c2ccc(Cl)cc2)cc(C(C)C)c(O)c1S(=O)(=O)c1ccc(Cl)cc1`, the AC50 is 6.31 µM [falling, partial curve].

Consider `Cc1nc2c(C(=O)NCCc3ccccc3)cnn2c(C)c1Cc1c(F)cccc1Cl`, for which the AC50 was 31.6 µM [falling, partial curve].

`CC(C)(C)OC(=O)N1CCC(c2c(C(=O)NCc3cccs3)cnn2-c2ccc(F)cc2F)CC1`: the AC50 is 20 µM [falling, partial curve].

With `O=C(O)c1cccc(N2CCCC2)c1`, the AC50 is 398 nM [falling, full curve] [measured here: IkB-luc green channel].
